Data as given in PubChem BioAssay AID743458 (Peter MacCallum Cancer Centre, 2014).
Shown is one part, drawn at random, of about 1,800 deposited reagents. Of all reagents, 732 (41%) were called active. 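Calls are per siRNA reagent; a gene was deemed confirmed only if most of its four siRNAs scored.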 A number with no mark means an inactive call. The numbers tell different reagents against one gene apart. No sequences are given here.

Test: 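Identify genes whose loss lifts vorinostat resistance in colon cancer cells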 (follow-up of hits)
Cell system: human HCT116-VR colon cancer cells made resistant to vorinostat
Reagent: single siRNA or pool against human genes, 25 nM per single siRNA
Time to read-out: about 72 h after transfection, including 24 h of drug
Treatment: vorinostat, 2.5 µM final, for 24 h
Read-out: 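Cell viability by fluorescence and apoptosis by caspase 3/7 luminescence under vorinostat, background-corrected, averaged across two plate copies and given as fold change versus mock transfection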
Reading the numbers: viability relative to mock: higher = more living cells than mock; caspase activity relative to mock: higher = more apoptosis than mock
Hit rule: 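Active means a reduced-viability or caspase-activation class, anything else inactive; classes could only be given to wells that looked healthy when left untreated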

target gene	reagent no.	viability relative to mock	caspase activity relative to mock	viability hit class	caspase hit class
AOC1	1	0.75	1	no change	no change
AOC1	2	0.84	0.74	no change	no change
AOC1	3	0.94	0.97	no change	no change
AOC1	4	0.82	1.64	no change	no change
ERH	1	0.36 (active)	1.28	reduced viability	no change
ERH	2	0.55 (active)	2.61	reduced viability	caspase activation
ERH	3	0.67	2.06	no change	no change
ERH	4	0.84	0.82	no change	no change
TRIM51G	1	0.74 (active)	4.42	no change	caspase activation
TRIM51G	2	1.02	1.61	no change	no change
TRIM51G	3	0.78	1.52	no change	no change
TRIM51G	4	0.94	2.42	no change	no change
MROH5	1	0.64	0.55	no change	no change
MROH5	2	0.86	1.75	no change	no change
MROH5	3	0.76 (active)	4.28	no change	caspase activation
MROH5	4	0.28 (active)	2.5	reduced viability	no change
RNF121	1	0.77 (active)	3.81	no change	caspase activation
RNF121	2	0.91	1.89	no change	no change
RNF121	3	0.97	1.49	no change	no change
RNF121	4	0.72	2.31	no change	no change
TAC4	1	1.02 (active)	2.79	no change	caspase activation
TAC4	2	0.9	1.22	no change	no change
TAC4	3	0.8	1.35	no change	no change
TAC4	4	0.52 (active)	4.58	reduced viability	caspase activation
